These results are taken from paper PMC6762210.

No constants are given. Whether binding was seen depends on the method and setting. In cells and extracts the contact can be indirect. These calls come from enrichment with a bait or labelling near it, and not all partners need be listed. For some of these results: Tags and fused reporters may be left off the sequences shown.

Assay [1] concerns the target T1, GrxD^Venus (full-length A. fumigatus monothiol glutaredoxin GrxD, C-terminally tagged with Venus) (A. fumigatus) (UniProt Q4X024).
T1 sequence: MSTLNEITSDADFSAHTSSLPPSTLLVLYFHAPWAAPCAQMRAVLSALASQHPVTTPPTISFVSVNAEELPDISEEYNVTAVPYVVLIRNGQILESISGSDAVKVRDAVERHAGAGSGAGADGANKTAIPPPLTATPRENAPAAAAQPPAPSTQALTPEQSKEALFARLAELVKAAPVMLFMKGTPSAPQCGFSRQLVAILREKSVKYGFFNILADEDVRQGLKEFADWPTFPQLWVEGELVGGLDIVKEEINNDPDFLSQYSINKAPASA
In words: affinity purification with mass spectrometry; GFP-Trap agarose beads on mycelial crude extracts of A. fumigatus PxylP:grxD^venus or PxylP:grxD^venusΔtrx grown at -Fe, 0.03 mM Fe or 5 mM Fe (22 h, 37°C, xylose-induced); wt extract as control; 4°C, 1 h; washes with up to 500 mM NaCl; nLC-MS/MS with label-free quantification.

The target of assay [2] is GrxD^VenusΔTrx (GrxD lacking its Trx domain, C-terminally tagged with Venus) (A. fumigatus). The description is as above.

B1: CmtA (putative copper metallothionein) (protein, UniProt A4DA78 1-111)
chain: MVHPSSTCCKTSGDGSCVCAAQAKCSCGKENALHCTCSRSAIENTISGPRCSCRARPAGQCTCERAAAENHPVTGDACPCGKRPSTSCTCEKVSAVDAAAEAIETDFTTRA
For the molecule B1, the binding entry in assay [1] and in assay [2] was “binds” throughout.

B2: SreA (iron responsive transcription factor) (protein, UniProt Q4WV91 1-546)
chain: MLASVPQMDSVRSLPRNHDVVARHASAEDLDAAQQLISSAQAGREHTTDRHRDEKVTAPVRHQMKTSMNGQRWPEQQRTAPPAEKTSTSPKAQKDTSFLGHSCSNCGTKSTPLWRRSPTGAMICNACGLYLKARNVARPTKRNRMEPGSEAGGQQTGHGIAQSESASQGHCQSNSGGGSCPGGGNCNGTGGAEGCDGCPAYNNRVYKSAARGTVPIHSWRATNSGSDRPLAETENDAGKNGATVEGGNMLVSCQNCGTTVTPLWRRDENGHPICNACGLYYKLHGCYRPTTMKKSIIKRRKRVVPALRDQSPSGATYSSNGSSASPEASPAVLAHSHDDHYRYLSSDPTLQANHQRHYAVAPPPVDFTHFSATGSLSLPHHPPPPRLLEPERLSAPSHSPIPQFGRRSISPSTSGSAKKRTLAETTSSTDTASVPTTLESGSNQLPPIISTANPSPPGRLSSISTLLNHSGPHDESRLDPSLAALSRQQQHHKATPLPPHPPSQPLPGVSELESLKEDRRAKLQREAEEMREMLRAKERELAELGA
As to B2, in assay [1], the binding entry is listed as “binds”.

B3: Dre2 (CIA machinery) (protein, UniProt B0XPZ4 1-300)
chain: MAKQTLLLSPPSLSSQPGKLNETLQSYNRNATDLQMLDRLALGLASLPDSAYSSIVILAGGDNSFSESLKLINRQIFNQIIGSLRRGGYIYGQDAVSGIAFDHNEAILAGLIHVGNGKYQKPDIKEMQAVPLRLGRKNDHLAGAPSLQESAAEHPCPPETMISASTMNSNEASDDELINEDNLLDDSELSAPIIQRGPAPECRPKAGKRRRACKDCTCGLAQKLQEEDAVKRADADEQLDAMRLLHDDLAEVDFTVQGKVGSCGNCSLGDAFRCEGCPFIGLPAFQPGEEVRLLNNDVQL
B3: the binding entry in assay [1] was “binds”.
